The other results are listed elsewhere or left out.
Assays:
Test in all cases: log2 fold change, soluble protein after heating vs DMSO (PISA); higher = thermal stabilisation; K562 cells, 10 uM, 30 min; active = over 0.2 and 3.5 SD of the protein, either way, in both replicates (recomputed)
[1] = compound: C#Cc1cccc(Nc2ncnc3cc(OCCOC)c(OCCOC)cc23)c1 [erlotinib]
How it was run: (§1)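 Thermal stability values are relative to control samples and come from duplicates. They are expressed as log2 fold changes. For measurement, K562 cells (2×10^6 cells/mL) received 10 μM compound for 30 min, and aliquots were heated for 3 min over 48°C-58°C, pooled, and extracted at 4°C in PBS with 0.5% NP-40. Soluble protein, the supernatant after 21,000xg for 90 min, was quantified by TMTpro 16plex LC-MS/MS with equalised channel sums.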

Chains of the proteins cited; added tags and fusions are not shown. Lines headed by an entry give the natural chain unless they say otherwise; changes in a name come on top.
UniProt O95777: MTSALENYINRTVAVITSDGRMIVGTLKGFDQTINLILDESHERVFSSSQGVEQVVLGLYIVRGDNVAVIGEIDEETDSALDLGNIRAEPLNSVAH
UniProt Q86V48: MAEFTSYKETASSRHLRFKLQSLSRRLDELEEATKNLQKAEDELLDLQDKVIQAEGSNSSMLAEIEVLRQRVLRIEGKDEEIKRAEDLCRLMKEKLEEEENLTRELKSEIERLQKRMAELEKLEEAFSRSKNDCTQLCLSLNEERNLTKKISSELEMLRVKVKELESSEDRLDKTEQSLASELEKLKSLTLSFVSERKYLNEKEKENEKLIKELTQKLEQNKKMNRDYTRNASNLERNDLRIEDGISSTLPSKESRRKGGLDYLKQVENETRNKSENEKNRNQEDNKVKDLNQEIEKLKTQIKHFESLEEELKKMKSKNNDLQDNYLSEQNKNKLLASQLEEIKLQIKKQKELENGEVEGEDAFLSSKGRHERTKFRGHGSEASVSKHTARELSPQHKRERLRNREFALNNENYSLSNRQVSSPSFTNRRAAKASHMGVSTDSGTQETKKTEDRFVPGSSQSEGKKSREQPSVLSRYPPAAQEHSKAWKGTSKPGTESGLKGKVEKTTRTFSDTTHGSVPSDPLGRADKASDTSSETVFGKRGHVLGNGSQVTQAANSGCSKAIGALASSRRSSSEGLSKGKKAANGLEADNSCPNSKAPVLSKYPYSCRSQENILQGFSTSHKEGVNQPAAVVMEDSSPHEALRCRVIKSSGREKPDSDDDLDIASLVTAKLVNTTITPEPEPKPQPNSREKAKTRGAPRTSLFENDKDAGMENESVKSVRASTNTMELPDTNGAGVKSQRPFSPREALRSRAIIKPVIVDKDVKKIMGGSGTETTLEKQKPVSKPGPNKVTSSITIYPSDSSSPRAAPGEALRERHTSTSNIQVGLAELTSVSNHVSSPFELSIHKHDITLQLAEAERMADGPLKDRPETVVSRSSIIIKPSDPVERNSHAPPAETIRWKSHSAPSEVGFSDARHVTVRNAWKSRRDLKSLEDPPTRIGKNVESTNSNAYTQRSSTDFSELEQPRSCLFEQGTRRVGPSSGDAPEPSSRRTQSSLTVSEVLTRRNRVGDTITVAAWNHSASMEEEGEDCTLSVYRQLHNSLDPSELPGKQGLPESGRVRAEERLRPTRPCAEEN
UniProt Q9Y2E5: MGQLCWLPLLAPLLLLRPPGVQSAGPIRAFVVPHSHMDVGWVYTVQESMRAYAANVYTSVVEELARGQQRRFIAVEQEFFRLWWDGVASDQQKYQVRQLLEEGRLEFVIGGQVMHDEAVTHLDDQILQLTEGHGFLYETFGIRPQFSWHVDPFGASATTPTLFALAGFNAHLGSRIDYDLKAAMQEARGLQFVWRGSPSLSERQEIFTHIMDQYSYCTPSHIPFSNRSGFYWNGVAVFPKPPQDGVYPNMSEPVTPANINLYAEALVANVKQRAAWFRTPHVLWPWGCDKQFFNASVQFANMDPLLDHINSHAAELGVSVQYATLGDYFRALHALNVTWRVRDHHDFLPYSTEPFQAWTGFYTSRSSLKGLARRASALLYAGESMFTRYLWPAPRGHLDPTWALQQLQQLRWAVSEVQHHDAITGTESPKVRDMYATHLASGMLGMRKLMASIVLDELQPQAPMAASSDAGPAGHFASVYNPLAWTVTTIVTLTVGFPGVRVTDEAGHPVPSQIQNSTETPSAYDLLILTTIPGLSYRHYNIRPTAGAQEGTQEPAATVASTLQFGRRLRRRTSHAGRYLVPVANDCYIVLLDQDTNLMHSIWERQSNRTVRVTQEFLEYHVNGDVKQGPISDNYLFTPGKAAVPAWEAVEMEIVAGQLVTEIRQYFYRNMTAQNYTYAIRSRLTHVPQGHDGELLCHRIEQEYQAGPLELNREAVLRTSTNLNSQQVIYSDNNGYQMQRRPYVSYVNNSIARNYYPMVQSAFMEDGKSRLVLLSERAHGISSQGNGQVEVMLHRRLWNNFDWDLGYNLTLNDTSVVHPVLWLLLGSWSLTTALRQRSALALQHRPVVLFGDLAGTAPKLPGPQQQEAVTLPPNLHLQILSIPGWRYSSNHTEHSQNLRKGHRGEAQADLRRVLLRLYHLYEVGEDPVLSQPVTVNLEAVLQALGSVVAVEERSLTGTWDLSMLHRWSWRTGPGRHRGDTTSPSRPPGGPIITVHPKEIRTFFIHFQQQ
UniProt Q9UPY8, whole entry, looked up: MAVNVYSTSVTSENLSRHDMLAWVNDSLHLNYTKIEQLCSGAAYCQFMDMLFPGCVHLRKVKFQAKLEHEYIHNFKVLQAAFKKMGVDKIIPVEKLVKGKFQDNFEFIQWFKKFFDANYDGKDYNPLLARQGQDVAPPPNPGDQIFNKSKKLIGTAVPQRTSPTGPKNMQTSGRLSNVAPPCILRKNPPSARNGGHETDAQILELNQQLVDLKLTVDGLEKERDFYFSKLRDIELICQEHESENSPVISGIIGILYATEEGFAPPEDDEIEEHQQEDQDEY
UniProt Q5SRI9: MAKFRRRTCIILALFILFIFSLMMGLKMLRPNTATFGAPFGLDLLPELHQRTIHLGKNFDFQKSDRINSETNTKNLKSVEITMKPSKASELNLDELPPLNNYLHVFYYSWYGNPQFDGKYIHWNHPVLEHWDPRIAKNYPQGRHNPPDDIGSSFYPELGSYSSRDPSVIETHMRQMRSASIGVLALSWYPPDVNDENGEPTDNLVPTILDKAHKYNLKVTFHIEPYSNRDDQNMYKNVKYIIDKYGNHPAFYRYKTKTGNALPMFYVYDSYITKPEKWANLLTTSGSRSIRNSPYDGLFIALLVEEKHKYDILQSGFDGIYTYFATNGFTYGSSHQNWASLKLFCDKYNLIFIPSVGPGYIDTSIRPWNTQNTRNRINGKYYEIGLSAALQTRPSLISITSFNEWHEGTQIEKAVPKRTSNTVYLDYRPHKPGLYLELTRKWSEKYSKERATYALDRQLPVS
UniProt Q9Y333: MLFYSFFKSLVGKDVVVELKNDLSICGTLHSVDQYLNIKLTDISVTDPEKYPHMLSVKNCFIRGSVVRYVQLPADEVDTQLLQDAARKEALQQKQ
UniProt Q8WZA0: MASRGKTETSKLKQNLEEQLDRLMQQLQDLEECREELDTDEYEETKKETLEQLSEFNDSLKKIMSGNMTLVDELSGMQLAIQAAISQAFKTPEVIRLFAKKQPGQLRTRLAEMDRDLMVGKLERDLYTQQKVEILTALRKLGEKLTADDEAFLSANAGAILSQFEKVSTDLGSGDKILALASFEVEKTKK
UniProt O60476: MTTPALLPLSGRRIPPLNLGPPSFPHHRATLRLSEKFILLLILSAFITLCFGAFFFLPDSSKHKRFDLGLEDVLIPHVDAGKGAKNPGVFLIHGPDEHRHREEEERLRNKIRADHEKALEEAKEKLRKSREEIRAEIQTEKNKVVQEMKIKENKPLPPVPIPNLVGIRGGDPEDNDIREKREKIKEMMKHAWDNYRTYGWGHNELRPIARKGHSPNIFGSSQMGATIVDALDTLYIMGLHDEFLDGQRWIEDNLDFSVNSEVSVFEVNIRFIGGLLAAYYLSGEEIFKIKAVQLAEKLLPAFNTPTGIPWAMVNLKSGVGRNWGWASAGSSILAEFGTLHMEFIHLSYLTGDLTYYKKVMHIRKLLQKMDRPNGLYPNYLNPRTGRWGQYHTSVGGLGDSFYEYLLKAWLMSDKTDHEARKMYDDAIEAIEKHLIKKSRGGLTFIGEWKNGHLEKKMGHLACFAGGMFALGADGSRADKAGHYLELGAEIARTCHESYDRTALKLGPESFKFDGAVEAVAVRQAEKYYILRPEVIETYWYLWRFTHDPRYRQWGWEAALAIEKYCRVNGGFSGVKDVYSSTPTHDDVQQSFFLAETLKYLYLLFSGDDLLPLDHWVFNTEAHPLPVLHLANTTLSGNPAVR
UniProt Q8WXG6, whole entry, looked up: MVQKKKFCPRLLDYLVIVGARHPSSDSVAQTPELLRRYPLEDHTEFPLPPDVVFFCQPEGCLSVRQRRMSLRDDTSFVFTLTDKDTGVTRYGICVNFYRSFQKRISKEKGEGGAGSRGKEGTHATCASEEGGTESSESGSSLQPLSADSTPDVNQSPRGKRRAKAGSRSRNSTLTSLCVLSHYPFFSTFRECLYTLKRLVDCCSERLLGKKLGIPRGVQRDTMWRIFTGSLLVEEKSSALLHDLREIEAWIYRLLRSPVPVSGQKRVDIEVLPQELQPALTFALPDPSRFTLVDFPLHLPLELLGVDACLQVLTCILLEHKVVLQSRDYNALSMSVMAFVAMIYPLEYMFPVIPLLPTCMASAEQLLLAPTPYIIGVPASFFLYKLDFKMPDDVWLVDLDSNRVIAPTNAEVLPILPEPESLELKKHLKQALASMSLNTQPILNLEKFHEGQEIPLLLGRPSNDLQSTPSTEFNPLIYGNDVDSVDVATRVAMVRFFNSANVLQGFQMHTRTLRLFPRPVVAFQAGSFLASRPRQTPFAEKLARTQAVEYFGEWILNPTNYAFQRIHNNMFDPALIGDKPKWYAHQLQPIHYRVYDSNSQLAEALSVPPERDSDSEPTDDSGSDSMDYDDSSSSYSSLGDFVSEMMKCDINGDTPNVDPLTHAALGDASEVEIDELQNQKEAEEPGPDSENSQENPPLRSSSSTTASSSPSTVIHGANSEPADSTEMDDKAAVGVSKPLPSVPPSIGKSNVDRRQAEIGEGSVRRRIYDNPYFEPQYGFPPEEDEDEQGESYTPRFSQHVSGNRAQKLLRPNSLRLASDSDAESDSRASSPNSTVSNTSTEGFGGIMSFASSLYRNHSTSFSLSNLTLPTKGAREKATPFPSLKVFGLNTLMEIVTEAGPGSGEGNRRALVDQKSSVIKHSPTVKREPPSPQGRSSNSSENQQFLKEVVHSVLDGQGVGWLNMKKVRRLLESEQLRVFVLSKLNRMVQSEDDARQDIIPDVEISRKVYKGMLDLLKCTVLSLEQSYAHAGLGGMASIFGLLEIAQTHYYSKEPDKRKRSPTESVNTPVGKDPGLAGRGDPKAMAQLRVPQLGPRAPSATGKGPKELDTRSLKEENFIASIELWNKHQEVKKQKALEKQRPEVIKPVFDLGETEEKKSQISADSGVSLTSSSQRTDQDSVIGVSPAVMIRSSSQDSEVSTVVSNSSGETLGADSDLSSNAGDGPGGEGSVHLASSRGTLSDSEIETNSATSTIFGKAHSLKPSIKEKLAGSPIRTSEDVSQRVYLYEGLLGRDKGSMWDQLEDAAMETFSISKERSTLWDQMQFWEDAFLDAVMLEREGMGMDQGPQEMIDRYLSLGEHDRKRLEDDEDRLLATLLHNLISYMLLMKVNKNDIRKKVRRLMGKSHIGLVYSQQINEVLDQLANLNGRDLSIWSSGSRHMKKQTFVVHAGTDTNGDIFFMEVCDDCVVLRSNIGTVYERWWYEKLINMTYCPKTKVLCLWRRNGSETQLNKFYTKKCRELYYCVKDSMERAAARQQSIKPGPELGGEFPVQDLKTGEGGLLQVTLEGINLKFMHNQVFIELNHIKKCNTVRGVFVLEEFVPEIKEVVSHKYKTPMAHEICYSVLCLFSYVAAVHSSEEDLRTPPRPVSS
UniProt Q9H0U3: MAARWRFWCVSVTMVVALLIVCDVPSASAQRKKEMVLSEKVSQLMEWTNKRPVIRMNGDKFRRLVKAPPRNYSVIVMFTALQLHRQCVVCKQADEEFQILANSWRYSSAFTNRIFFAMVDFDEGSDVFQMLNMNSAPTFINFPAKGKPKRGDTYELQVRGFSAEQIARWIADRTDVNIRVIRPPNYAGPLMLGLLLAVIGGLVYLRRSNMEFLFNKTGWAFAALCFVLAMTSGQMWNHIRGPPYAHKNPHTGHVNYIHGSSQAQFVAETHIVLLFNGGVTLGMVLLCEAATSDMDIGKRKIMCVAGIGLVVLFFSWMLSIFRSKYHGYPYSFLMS
UniProt Q9Y6D9: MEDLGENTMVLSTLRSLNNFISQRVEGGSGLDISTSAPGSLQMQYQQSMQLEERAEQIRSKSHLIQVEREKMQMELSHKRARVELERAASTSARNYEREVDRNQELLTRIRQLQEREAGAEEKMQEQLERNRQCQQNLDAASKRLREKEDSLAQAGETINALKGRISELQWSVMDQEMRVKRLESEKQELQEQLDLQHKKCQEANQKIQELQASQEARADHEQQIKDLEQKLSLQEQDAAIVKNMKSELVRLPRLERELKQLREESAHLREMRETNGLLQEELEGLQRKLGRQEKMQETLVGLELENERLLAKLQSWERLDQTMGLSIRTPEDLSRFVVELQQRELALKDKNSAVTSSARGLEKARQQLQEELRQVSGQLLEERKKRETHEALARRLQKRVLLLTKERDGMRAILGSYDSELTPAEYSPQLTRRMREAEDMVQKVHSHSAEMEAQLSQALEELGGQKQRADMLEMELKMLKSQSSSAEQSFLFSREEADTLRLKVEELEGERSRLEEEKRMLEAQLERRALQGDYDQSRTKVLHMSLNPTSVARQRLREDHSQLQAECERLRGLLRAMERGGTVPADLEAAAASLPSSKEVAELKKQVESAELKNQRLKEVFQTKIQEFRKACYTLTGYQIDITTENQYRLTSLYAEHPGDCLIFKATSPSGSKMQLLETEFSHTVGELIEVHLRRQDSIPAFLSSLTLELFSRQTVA

[2] = compound: C/C(=N\NC(=O)C1=CC(=CC=C1)S(=O)(=O)N2CCOCC2)/C3=C(C=CC(=C3)Cl)O
How it was run: as §1

[3] = compound: C1=CC(=C(C=C1Cl)C2=NC3=NC=CN=C3C(=N2)NC4=CC=NC=C4)F
How it was run: as §1

[4] = compound: C1=CC(=CC=C1C2=NC3=C(N2)C=C(C=C3)C(=O)N)OC4=CC=C(C=C4)Cl
How it was run: as §1

[5] = compound: C1=CC2=C(C=CC(=C2)/C=C\3/C(=O)NC(=NCC4=CC=CS4)S3)N=C1
How it was run: as §1

[6] = compound: C1=CC2=NC=CN=C2C=C1/C=C/3\C(=O)NC(=O)S3
How it was run: as §1

[7] = compound: C1=CC=C(C=C1)C2=NC(=C(N2)C3=CC=NC=C3)C4=CC(=C(C=C4)Cl)O
How it was run: as §1

[8] = compound: C1=CC=C2C(=C1)C3=NNC4=CC=CC(=C43)C2=O
How it was run: as §1

[9] = compound: C1CCN(C1)C(=O)NC2=CC=CC(=C2)NC3=NC=C(C(=N3)NCCC4=CN=CN4)Br
How it was run: as §1

[10] = compound: C1CN(CCC1(CC2=CC=C(C=C2)Cl)N)C3=NC=NC4=C3C=CN4
How it was run: as §1

Measured: log2 fold change

MAEA (UniProt Q7L5Y9)
inactive: [1] -0.056 | [2] -0.017 | [3] 0.036 | [4] 0.043 | [5] -0.004 | [6] 0.053 | [7] -0.039 | [8] -0.027 | [9] -0.008 | [10] -0.042

LUC7L2 (UniProt Q9Y383)
inactive: [1] -0.001 | [2] 0.122 | [3] 0.013 | [4] 0.098 | [5] -0.218 | [6] -0.031 | [7] 0.008 | [8] -0.143 | [9] -0.03 | [10] -0.072

MAP3K4 isoform 2 (UniProt Q9Y6R4)
inactive: [1] -0.027 | [2] 0.019 | [3] 0.036 | [4] -0.023 | [5] 0.039 | [6] -0.017 | [7] -0.023 | [8] -0.031 | [9] 0.034 | [10] 0.07

MAGEA9 (UniProt P43362)
inactive: [1] 0.05 | [2] 0.032 | [3] 0.001 | [4] 0.076 | [5] -0.07 | [6] 0.074 | [7] -0.021 | [8] -0.058 | [9] -0.191 | [10] 0.018

LSM8 (UniProt O95777)
inactive: [1] -0.031 | [2] -0.002 | [3] -0.026 | [4] -0.017 | [5] 0.043 | [6] 0.038 | [7] -0.004 | [8] -0.016 | [9] -0.028 | [10] 0.012

LYPLA2 (UniProt O95372)
active: [3] 0.345
inactive: [1] -0.008 | [2] 0.021 | [4] -0.01 | [5] 0.081 | [6] 0.097 | [7] 0.14 | [8] -0.016 | [9] -0.084 | [10] -0.122

LUZP1 (UniProt Q86V48)
inactive: [1] -0.094 | [2] -0.035 | [3] -0.328 | [4] -0.01 | [5] -0.131 | [6] -0.095 | [7] -0.091 | [8] -0.187 | [9] -0.06 | [10] -0.297

MAN2B2 (UniProt Q9Y2E5)
inactive: [1] -0.035 | [2] 0.005 | [3] -0.008 | [4] -0.003 | [5] 0.076 | [6] 0.025 | [7] -0.07 | [8] 0.063 | [9] -0.02 | [10] -0.186

MAPRE3 (UniProt Q9UPY8)
active: [2] 0.252
inactive: [1] -0.039 | [3] 0.076 | [4] 0.003 | [5] -0.013 | [6] 0.042 | [7] -0.05 | [8] 0 | [9] 0.035 | [10] -0.01

MANEA (UniProt Q5SRI9)
inactive: [1] -0.007 | [2] -0.003 | [3] 0.006 | [4] 0.004 | [5] -0.018 | [6] 0.009 | [7] 0.016 | [8] 0.007 | [9] -0.035 | [10] 0.018

MAP2K3 isoform 3 (UniProt P46734)
inactive: [1] -0.011 | [2] 0.05 | [3] 0.002 | [4] 0.009 | [5] 0.036 | [6] 0.017 | [7] 0.046 | [8] -0.057 | [9] 0.016 | [10] -0.006

LSM2 (UniProt Q9Y333)
inactive: [1] -0.051 | [2] 0.088 | [3] 0.06 | [4] -0.006 | [5] 0.009 | [6] 0.048 | [7] 0.062 | [8] 0.015 | [9] -0.009 | [10] 0.01

LZIC isoform 2 (UniProt Q8WZA0)
inactive: [1] -0.033 | [2] 0.005 | [3] 0.045 | [4] 0.019 | [5] 0.01 | [6] 0.021 | [7] -0.069 | [8] -0.017 | [9] 0.004 | [10] 0.054

MAP1S (UniProt Q66K74)
inactive: [1] -0.016 | [2] 0.099 | [3] 0.012 | [4] 0.001 | [5] -0.025 | [6] 0.01 | [7] 0.017 | [8] 0.005 | [9] 0.015 | [10] -0.059

MAPK12 (UniProt P53778)
inactive: [1] -0.039 | [2] -0.033 | [3] -0.093 | [4] -0.053 | [5] 0.008 | [6] -0.074 | [7] 0.073 | [8] 0.003 | [9] 0.087 | [10] 0.024

MACF1 (UniProt Q9UPN3)
inactive: [1] -0.001 | [2] 0.055 | [3] -0.104 | [4] 0.001 | [5] 0 | [6] 0.04 | [7] -0.02 | [8] -0.005 | [9] -0.066 | [10] -0.095

LTV1 (UniProt Q96GA3)
inactive: [1] -0.079 | [2] -0.073 | [3] -0.275 | [4] 0.041 | [5] -0.037 | [6] 0.013 | [7] -0.055 | [8] 0.046 | [9] 0.143 | [10] -0.284

MAN1A2 (UniProt O60476)
inactive: [1] -0.027 | [2] 0.037 | [3] 0.038 | [4] 0.03 | [5] 0.021 | [6] 0.026 | [7] -0.044 | [8] 0.016 | [9] 0.017 | [10] -0.003

MADD isoform 2 (UniProt Q8WXG6)
inactive: [1] 0.06 | [2] -0.008 | [3] -0.147 | [4] 0 | [5] 0.057 | [6] -0.043 | [7] 0.023 | [8] -0.104 | [9] 0.012 | [10] -0.041

MAP4 (UniProt E7EVA0)
inactive: [1] 0 | [2] -0.093 | [3] -0.219 | [4] 0.063 | [5] -0.087 | [6] 0.058 | [7] -0.086 | [8] -0.003 | [9] 0.034 | [10] -0.053

MAGT1 (UniProt Q9H0U3)
inactive: [1] -0.019 | [2] -0.044 | [3] -0.01 | [4] 0.021 | [5] 0.021 | [6] 0.003 | [7] 0.009 | [8] -0.019 | [9] 0.005 | [10] 0

LTN1 isoform 3 (UniProt O94822)
inactive: [1] 0.026 | [2] 0.114 | [3] -0.021 | [4] -0.02 | [5] 0.032 | [6] -0.021 | [7] -0.027 | [8] -0.056 | [9] -0.027 | [10] -0.031

LSM14A isoform 2 (UniProt Q8ND56)
inactive: [1] 0.051 | [2] -0.006 | [3] -0.079 | [4] -0.017 | [5] 0.039 | [6] 0 | [7] -0.062 | [8] 0.038 | [9] 0.031 | [10] -0.086

MAD1L1 (UniProt Q9Y6D9)
inactive: [1] 0 | [2] -0.475 | [3] 0.375 | [4] 0.017 | [5] 0.073 | [6] 0.06 | [7] 0.224 | [8] -0.062 | [9] 0.12 | [10] 0.564

Looked up one by one from above (two):
MAD1L1 (UniProt Q9Y6D9)
inactive: [1] 0 | [2] -0.475 | [3] 0.375 | [4] 0.017 | [5] 0.073 | [6] 0.06 | [7] 0.224 | [8] -0.062 | [9] 0.12 | [10] 0.564

LSM14A isoform 2 (UniProt Q8ND56)
inactive: [1] 0.051 | [2] -0.006 | [3] -0.079 | [4] -0.017 | [5] 0.039 | [6] 0 | [7] -0.062 | [8] 0.038 | [9] 0.031 | [10] -0.086

Remaining list, next part.

MAPK9 (UniProt P45984)
inactive: [1] 0.007 | [2] 0.027 | [3] 0.031 | [4] -0.02 | [5] 0 | [6] -0.02 | [7] -0.026 | [8] 0.202 | [9] 0.063 | [10] 0.016

MAP1LC3B2 (UniProt A6NCE7)
inactive: [1] 0.009 | [2] 0.093 | [3] 0.038 | [4] 0 | [5] -0.031 | [6] 0.052 | [7] 0.016 | [8] 0.083 | [9] -0.002 | [10] 0.036

LTA4H (UniProt P09960)
inactive: [1] -0.021 | [2] 0.032 | [3] 0.057 | [4] 0.167 | [5] 0.054 | [6] 0.017 | [7] 0.005 | [8] -0.034 | [9] -0.023 | [10] 0.005

LUC7L3 (UniProt O95232)
inactive: [1] 0.011 | [2] 0.033 | [3] -0.018 | [4] 0.042 | [5] -0.093 | [6] -0.02 | [7] -0.043 | [8] -0.104 | [9] -0.002 | [10] -0.037

MAPK3 (UniProt P27361)
inactive: [1] -0.001 | [2] 0.028 | [3] 0.098 | [4] 0.002 | [5] -0.068 | [6] 0.005 | [7] -0.013 | [8] 0.016 | [9] -0.058 | [10] 0.007

Reference: the supplement of paper PMC10849652
